Source: doi:10.1101/2021.10.28.466285
No constants are given. Whether binding was seen depends on the method and setting. In cells and extracts the contact can be indirect. Some entries that bind do so weakly or less than the wild type.

Amino acid sequences for entries named in this document (tags omitted).
UniProt Q14839: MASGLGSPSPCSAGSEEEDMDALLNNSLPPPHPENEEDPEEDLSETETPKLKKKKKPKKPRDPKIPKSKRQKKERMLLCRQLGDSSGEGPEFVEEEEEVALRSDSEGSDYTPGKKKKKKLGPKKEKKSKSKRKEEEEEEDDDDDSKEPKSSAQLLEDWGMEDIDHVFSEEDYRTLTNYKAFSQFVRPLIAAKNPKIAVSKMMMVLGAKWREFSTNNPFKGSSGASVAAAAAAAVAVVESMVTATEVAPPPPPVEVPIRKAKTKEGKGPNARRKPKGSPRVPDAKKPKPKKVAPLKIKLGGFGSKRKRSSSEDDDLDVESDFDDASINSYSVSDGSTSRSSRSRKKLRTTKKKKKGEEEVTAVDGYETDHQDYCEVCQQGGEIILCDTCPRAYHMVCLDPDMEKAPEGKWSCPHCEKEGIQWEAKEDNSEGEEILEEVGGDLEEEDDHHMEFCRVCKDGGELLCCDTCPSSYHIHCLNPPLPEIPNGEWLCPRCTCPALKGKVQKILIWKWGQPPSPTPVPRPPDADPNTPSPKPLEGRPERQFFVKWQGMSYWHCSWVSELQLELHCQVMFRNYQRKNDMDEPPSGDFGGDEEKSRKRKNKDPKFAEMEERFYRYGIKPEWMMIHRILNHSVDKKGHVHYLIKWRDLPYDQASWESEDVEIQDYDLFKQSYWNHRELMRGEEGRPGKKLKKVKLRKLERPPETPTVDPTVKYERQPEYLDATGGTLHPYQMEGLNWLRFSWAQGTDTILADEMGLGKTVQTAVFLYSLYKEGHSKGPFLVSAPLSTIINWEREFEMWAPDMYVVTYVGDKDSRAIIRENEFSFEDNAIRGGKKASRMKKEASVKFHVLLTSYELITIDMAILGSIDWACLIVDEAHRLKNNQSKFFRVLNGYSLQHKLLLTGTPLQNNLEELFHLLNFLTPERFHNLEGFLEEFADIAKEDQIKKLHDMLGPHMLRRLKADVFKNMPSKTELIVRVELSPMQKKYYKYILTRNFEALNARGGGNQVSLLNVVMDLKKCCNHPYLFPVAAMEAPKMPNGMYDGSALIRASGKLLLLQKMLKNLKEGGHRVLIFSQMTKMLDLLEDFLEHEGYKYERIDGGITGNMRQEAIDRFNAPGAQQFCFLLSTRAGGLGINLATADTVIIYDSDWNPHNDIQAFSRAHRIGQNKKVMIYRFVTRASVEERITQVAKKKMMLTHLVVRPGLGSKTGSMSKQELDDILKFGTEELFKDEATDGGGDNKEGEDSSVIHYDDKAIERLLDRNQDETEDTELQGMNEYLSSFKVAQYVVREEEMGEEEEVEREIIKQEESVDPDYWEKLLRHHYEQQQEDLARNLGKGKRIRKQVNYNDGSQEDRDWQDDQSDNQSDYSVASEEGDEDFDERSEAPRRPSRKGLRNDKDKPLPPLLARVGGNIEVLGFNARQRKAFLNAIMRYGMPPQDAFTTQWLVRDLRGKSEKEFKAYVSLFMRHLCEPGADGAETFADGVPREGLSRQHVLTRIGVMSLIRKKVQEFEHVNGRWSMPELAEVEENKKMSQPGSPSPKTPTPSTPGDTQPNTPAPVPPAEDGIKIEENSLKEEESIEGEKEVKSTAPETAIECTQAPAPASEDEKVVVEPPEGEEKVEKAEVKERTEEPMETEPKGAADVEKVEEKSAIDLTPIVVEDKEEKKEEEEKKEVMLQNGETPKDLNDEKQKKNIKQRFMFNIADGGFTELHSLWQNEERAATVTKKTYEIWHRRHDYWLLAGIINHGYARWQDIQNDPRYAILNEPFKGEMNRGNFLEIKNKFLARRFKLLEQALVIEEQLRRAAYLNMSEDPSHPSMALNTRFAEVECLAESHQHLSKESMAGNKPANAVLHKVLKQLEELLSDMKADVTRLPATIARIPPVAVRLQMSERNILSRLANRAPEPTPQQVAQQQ

Target: Full length human CHD4 tagged at C-terminus with Flag/Myc (human) (UniProt Q14839)
Experiment: proximity ligation

- binding: binds
B1: TBX5 expressed with CHD4 in HEK-293 cells (protein, UniProt Q99593 1-518)
chain: MADADEGFGLAHTPLEPDAKDLPCDSKPESALGAPSKSPSSPQAAFTQQGMEGIKVFLHERELWLKFHEVGTEMIITKAGRRMFPSYKVKVTGLNPKTKYILLMDIVPADDHRYKFADNKWSVTGKAEPAMPGRLYVHPDSPATGAHWMRQLVSFQKLKLTNNHLDPFGHIILNSMHKYQPRLHIVKADENNGFGSKNTAFCTHVFPETAFIAVTSYQNHKITQLKIENNPFAKGFRGSDDMELHRMSRMQSKEYPVVPRSTVRQKVASNHSPFSSESRALSTSSNLGSQYQCENGVSGPSQDLLPPPNPYPLPQEHSQIYHCTKRKEEECSTTDHPYKKPYMETSPSEEDSFYRSSYPQQQGLGASYRTESAQRQACMYASSAPPSEPVPSLEDISCNTWPSMPSYSSCTVTTVQPMDRLPYQHFSAHFTSGPLVPRLAGMANHGSPQLGEGMFQHQTSVAHQPVVRQCGPQTGLQSPGTLQPPEFLYSHGVPRTLSPHQYHSVHGVGMVPEWSDNS
